Data source: PubChem BioAssay AID1224828 (NIAID, 2016)
The deposit covers about 17,000 reagents; shown is an unselected part. Of all reagents, 762 (4.5%) were called active. 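Active calls include both raised and lowered p65 entry, mostly lowered; wells with fewer than 50 cells lack a z-score.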 The raw values are shown without normalisation. A reagent listed more than once was tested more than once; the source does not tell the runs apart.

- Screen: 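Knock-downs that increase or decrease LPS-induced p65 nuclear translocation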 (primary screen)
- Cell system: mouse RAW264.7 G9 macrophage reporter cells (GFP-p65, Tnf promoter-mCherry)
- Reagent: siRNA pool against mouse genes, 100 nM
- Time to read-out: 2 days siRNA transfection, then 40 min LPS before fixation
- Challenge: LPS (Salmonella minnesota R595) at 10 ng/ml
- Read-out: 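Imaged p65 nuclear translocation ratio, normalised to the plate median, converted to robust z-scores and averaged across two replicates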
- Direction: p65 translocation robust z-score: higher = more nuclear NF-kappaB p65 after LPS than the plate median; nuclear/cytoplasmic p65 ratio: higher = more nuclear NF-kappaB p65
- Rule for the call: 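Called active when z exceeds 3.3 or falls under -1.56 (median of Tlr4 controls), giving activity score of at least 50; no calls for control wells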
- Meaning of the calls: active = hit (p65 shift raised or lowered); inactive = no clear change

Gene,p65 translocation robust z-score,"nuclear/cytoplasmic p65 ratio, rep 1","nuclear/cytoplasmic p65 ratio, rep 2",low cell count flag,Outcome
Hspg2 (perlecan (heparan sulfate proteoglycan 2)),-0.08,1.57,1.39,enough cells to score,inactive
Katna1 (katanin p60 (ATPase-containing) subunit A1),0.79,1.66,1.54,enough cells to score,inactive
Ngly1 (N-glycanase 1),-0.63,1.56,1.6,enough cells to score,inactive
Trpc7,-0.02,1.51,1.5,enough cells to score,inactive
"Rab5c (RAB5C, member RAS oncogene family)",-0.77,1.5,1.32,enough cells to score,inactive
Aurkb (aurora kinase B),,1.76,1.68,fewer than 50 cells per well; well left out of scoring,inactive
Or5d43 (olfactory receptor family 5 subfamily D member 43),-3.22,1.22,1.06,enough cells to score,active
Epas1 (endothelial PAS domain protein 1),0.09,1.49,1.37,enough cells to score,inactive
Pdlim5 (PDZ and LIM domain 5),-0.98,2.03,1.26,enough cells to score,inactive
Pdlim5 (PDZ and LIM domain 5),-0.29,1.36,1.54,enough cells to score,inactive
Mrps15 (mitochondrial ribosomal protein S15),0.31,1.91,1.57,enough cells to score,inactive
Spata2 (spermatogenesis associated 2),-0.7,1.35,1.13,enough cells to score,inactive
Aig1 (androgen-induced 1),0,1.63,1.66,enough cells to score,inactive
Vhl (von Hippel-Lindau tumor suppressor),-0.03,1.5,1.5,enough cells to score,inactive
Ctsb (cathepsin B),-0.63,1.47,1.23,enough cells to score,inactive
Triml1 (tripartite motif family-like 1),-0.27,1.41,1.47,enough cells to score,inactive
Hao2 (hydroxyacid oxidase 2),1.15,1.94,1.59,enough cells to score,inactive
2310011J03Rik (RIKEN cDNA 2310011J03 gene),-0.76,1.22,1.26,enough cells to score,inactive
Prph2 (peripherin 2),0.4,1.61,1.61,enough cells to score,inactive
E2f7 (E2F transcription factor 7),0.15,1.59,1.28,enough cells to score,inactive
Arf1 (ARF GTPase 1),0.78,1.85,1.62,enough cells to score,inactive
Or7g31 (olfactory receptor family 7 subfamily G member 31),-0.78,1.34,1.27,enough cells to score,inactive

Reagents above with an active call:
Gene,p65 translocation robust z-score,"nuclear/cytoplasmic p65 ratio, rep 1","nuclear/cytoplasmic p65 ratio, rep 2",low cell count flag,Outcome
Or5d43 (olfactory receptor family 5 subfamily D member 43),-3.22,1.22,1.06,enough cells to score,active

Further records follow.
Gene,p65 translocation robust z-score,"nuclear/cytoplasmic p65 ratio, rep 1","nuclear/cytoplasmic p65 ratio, rep 2",low cell count flag,Outcome
Sra1 (steroid receptor RNA activator 1),0.07,1.4,1.26,enough cells to score,inactive
Setd3 (SET domain containing 3),-1.3,1.37,1.58,enough cells to score,inactive
Or10g6 (olfactory receptor family 10 subfamily G member 6),-0.22,1.43,1.21,enough cells to score,inactive
Rbpms (RNA binding protein gene with multiple splicing),1.66,1.71,1.35,enough cells to score,inactive
"Pigt (phosphatidylinositol glycan anchor biosynthesis, class T)",-0.06,1.43,1.24,enough cells to score,inactive
Tmprss7 (transmembrane serine protease 7),-0.13,1.54,1.54,enough cells to score,inactive
Sh2d1a (SH2 domain containing 1A),-1.52,1.33,1.34,enough cells to score,inactive
Wnt6 (WNT family member 6),0.18,1.6,1.47,enough cells to score,inactive
"Dync1li2 (dynein, cytoplasmic 1 light intermediate chain 2)",2.13,1.79,2.07,enough cells to score,inactive
"Fpr-rs4 (formyl peptide receptor, related sequence 4)",0.83,1.67,1.62,enough cells to score,inactive
Ccdc88c (coiled-coil domain containing 88C),-0.43,1.39,1.48,enough cells to score,inactive
Metap1d (methionyl aminopeptidase type 1D (mitochondrial)),1.33,1.89,1.77,enough cells to score,inactive
Ppp3r2,0.46,1.61,1.42,enough cells to score,inactive
Prorsd1 (prolyl-tRNA synthetase domain containing 1),,1.11,1.1,fewer than 50 cells per well; well left out of scoring,inactive
"Zmym1 (zinc finger, MYM domain containing 1)",1.52,1.42,1.42,enough cells to score,inactive
Dynlt3 (dynein light chain Tctex-type 3),,1.15,0.985,fewer than 50 cells per well; well left out of scoring,inactive
Tg (thyroglobulin),-0.28,1.55,1.42,enough cells to score,inactive
Itm2b (integral membrane protein 2B),-0.48,1.36,1.37,enough cells to score,inactive
